According to patent US20230203162A1:
No constants are given. Whether binding was seen depends on the method and setting. Binding can be weak; no strength is given.

Experiments:
[1] = biological target: recombinant cynomolgus monkey MSLN (purchased from Sino Biological) (cynomolgus monkey); assay: SPR
[2] = biological target: cynomolgus monkey MSLN on recombinant CHO cell line (cynomolgus monkey); assay: cELISA on CHO cells expressing cynomolgus monkey MSLN

B1: anti-MSLN scFv PRO1783 (scFv)
scFv: DIQMTQSPSSLSASVGDRVTITCQASQNIYSNLAWYQQKPGKAPKLLIYDASDLASGVPSRFSGSGSGTDFTLTISSLQPEDFATYYCQQVRSSSDIDNPFGTGTKVTVLGGGGGSGGGGSGGGGSGGGGSQVQLVESGGGLVQPGGSLRLSCAASGFSLSSYAMGWVRQAPGKGLEWIGYISTINNTYYASWAKGRFTISRDNSKNTVYLQMNSLRAEDTAVYYCAREIRSGWVDYGFSIWGQGTLVTVSS
[1]
  binding: binds
[2]
  binding: binds
